{"source": "patent US20120328636A1", "key": {"[1]": {"biological_target": "HLA-A24 (human)", "assay": "told in words in Example 11; no direct binding assay described there"}, "[2]": {"biological_target": "HLA-A0201 (human)", "assay": "told in words in Example 13; rests on ELISPOT with peptide-pulsed T2 cells, no direct binding assay"}, "[3]": {"biological_target": "HLA-A0201 (human)", "assay": "told in words in Example 13; no direct binding assay"}}, "note": "No constants are given. Whether binding was seen depends on the method and setting. A result given as binding can be weak or reduced; the word gives no strength.", "data": [{"binder": "RFVPDGNRI", "note": "[peptide of SEQ ID NO:8 (amino acid initiation position KDR169)]", "values": [{"measurement": "binding", "setting": "[1]", "value": "binds"}]}, {"binder": "YMISYAGMV", "note": "[peptide of SEQ ID NO:40 (amino acid initiation position KDR190)]", "values": [{"measurement": "binding", "setting": "[2]", "value": "binds"}]}, {"binder": "VLAMFFWLL", "note": "[KDR773-2L peptide (SEQ ID NO:54)]", "values": [{"measurement": "binding", "setting": "[3]", "value": "binds"}]}, {"binder": "AMFFWLLLV", "note": "[peptide of SEQ ID NO:29 (KDR775)]", "values": [{"measurement": "binding", "setting": "[2]", "value": "binds"}]}, {"binder": "KLIEIGVQT", "note": "[peptide of SEQ ID NO:34 (KDR1328)]", "values": [{"measurement": "binding", "setting": "[2]", "value": "binds"}]}, {"binder": "AVIAMFFWL", "note": "[peptide of SEQ ID NO:33 (KDR772)]", "values": [{"measurement": "binding", "setting": "[2]", "value": "binds"}]}]}
